Data as given in PubChem BioAssay AID1259405 (NCATS, 2018)

Purpose: 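Mouse-designed siRNAs used to find CHO productivity engineering targets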 (primary screen)
Cells: Chinese hamster CHO-K1 ovary cells with stable secreted eGFP expression
Knock-down reagent: single siRNA against mouse genes, 0.8 pmol siRNA per well (2 µl of 400 nM stock)
Duration: 3 days
Measurement: 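Per-well intracellular GFP measured by laser scanning cytometry, plus viability from ATP luminescence, each relative to plate median of non-targeting control wells, in %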
Direction: GFP, % of control: higher = more GFP per well, higher productivity; viability (ATP), % of control: higher = more viable cells (more ATP)
Active means: 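Called active when intracellular GFP, relative to negative control, is at or above 120%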
The deposit covers about 50,000 reagents; this is an unselected part. In the full data, about 4,000 (8%) are marked active. 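Mouse siRNA library applied to hamster cells; one well for each siRNA.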 Unmarked entries are inactive. Reagents against one gene are numbered here. No sequences are given here.

Prdx6b (peroxiredoxin 6B) #1: GFP, % of control = 73.9; viability (ATP), % of control = 75.3
Prdx6b (peroxiredoxin 6B) #2: GFP, % of control = 55.5; viability (ATP), % of control = 64
Prdx6b (peroxiredoxin 6B) #3: GFP, % of control = 72.2; viability (ATP), % of control = 81.3
Acss1 (acyl-CoA synthetase short-chain family member 1) #1: GFP, % of control = 62.8; viability (ATP), % of control = 85.8
Acss1 (acyl-CoA synthetase short-chain family member 1) #2: GFP, % of control = 94.1; viability (ATP), % of control = 73.5
Acss1 (acyl-CoA synthetase short-chain family member 1) #3: GFP, % of control = 72.7; viability (ATP), % of control = 136
Dgcr8 (DGCR8, microprocessor complex subunit) #1: GFP, % of control = 89.5; viability (ATP), % of control = 90.4
Dgcr8 (DGCR8, microprocessor complex subunit) #2: GFP, % of control = 120 (active); viability (ATP), % of control = 134
Dgcr8 (DGCR8, microprocessor complex subunit) #3: GFP, % of control = 47; viability (ATP), % of control = 68.2
Nrg1 (neuregulin 1) #1: GFP, % of control = 103; viability (ATP), % of control = 58.9
Nrg1 (neuregulin 1) #2: GFP, % of control = 72.3; viability (ATP), % of control = 63.2
Nrg1 (neuregulin 1) #3: GFP, % of control = 79.2; viability (ATP), % of control = 82.8
Ccp110 (centriolar coiled coil protein 110) #1: GFP, % of control = 43.1; viability (ATP), % of control = 68.2
Ccp110 (centriolar coiled coil protein 110) #2: GFP, % of control = 119; viability (ATP), % of control = 85.6
Ccp110 (centriolar coiled coil protein 110) #3: GFP, % of control = 89.9; viability (ATP), % of control = 95.2
Agtr2 (angiotensin II receptor, type 2) #1: GFP, % of control = 88.1; viability (ATP), % of control = 70.5
Agtr2 (angiotensin II receptor, type 2) #2: GFP, % of control = 55.2; viability (ATP), % of control = 51.7
Agtr2 (angiotensin II receptor, type 2) #3: GFP, % of control = 66.9; viability (ATP), % of control = 56.5
Or5b107 (olfactory receptor family 5 subfamily B member 107) #1: GFP, % of control = 64.8; viability (ATP), % of control = 54
Or5b107 (olfactory receptor family 5 subfamily B member 107) #2: GFP, % of control = 45.7; viability (ATP), % of control = 50.1
Or5b107 (olfactory receptor family 5 subfamily B member 107) #3: GFP, % of control = 80.1; viability (ATP), % of control = 77.7
Or9r7 (olfactory receptor family 9 subfamily R member 7) #1: GFP, % of control = 41.9; viability (ATP), % of control = 46.9
Or9r7 (olfactory receptor family 9 subfamily R member 7) #2: GFP, % of control = 13.7; viability (ATP), % of control = 35.4
Or9r7 (olfactory receptor family 9 subfamily R member 7) #3: GFP, % of control = 35.2; viability (ATP), % of control = 42.4

Laid out differently: 7 of the entries above.
{"gene symbol": "Ccp110 (centriolar coiled coil protein 110)", "siRNA no.": 1, "GFP, % of control": 43.1, "viability (ATP), % of control": 68.2}
{"gene symbol": "Ccp110 (centriolar coiled coil protein 110)", "siRNA no.": 2, "GFP, % of control": 119, "viability (ATP), % of control": 85.6}
{"gene symbol": "Ccp110 (centriolar coiled coil protein 110)", "siRNA no.": 3, "GFP, % of control": 89.9, "viability (ATP), % of control": 95.2}
{"gene symbol": "Agtr2 (angiotensin II receptor, type 2)", "siRNA no.": 1, "GFP, % of control": 88.1, "viability (ATP), % of control": 70.5}
{"gene symbol": "Agtr2 (angiotensin II receptor, type 2)", "siRNA no.": 2, "GFP, % of control": 55.2, "viability (ATP), % of control": 51.7}
{"gene symbol": "Agtr2 (angiotensin II receptor, type 2)", "siRNA no.": 3, "GFP, % of control": 66.9, "viability (ATP), % of control": 56.5}
{"gene symbol": "Or5b107 (olfactory receptor family 5 subfamily B member 107)", "siRNA no.": 1, "GFP, % of control": 64.8, "viability (ATP), % of control": 54}

Further records:
Plin5 (perilipin 5) #1: GFP, % of control = 86.4; viability (ATP), % of control = 47.4
Plin5 (perilipin 5) #2: GFP, % of control = 103; viability (ATP), % of control = 96.2
Plin5 (perilipin 5) #3: GFP, % of control = 66.9; viability (ATP), % of control = 77.3
Muc19 (mucin 19) #1: GFP, % of control = 83.5; viability (ATP), % of control = 89.4
Muc19 (mucin 19) #2: GFP, % of control = 92.8; viability (ATP), % of control = 85.4
Muc19 (mucin 19) #3: GFP, % of control = 86.6; viability (ATP), % of control = 54.9
Cspp1 (centrosome and spindle pole associated protein 1) #1: GFP, % of control = 60.3; viability (ATP), % of control = 45
Cspp1 (centrosome and spindle pole associated protein 1) #2: GFP, % of control = 76.4; viability (ATP), % of control = 66.9
Cspp1 (centrosome and spindle pole associated protein 1) #3: GFP, % of control = 116; viability (ATP), % of control = 87.2
Arpc5 (actin related protein 2/3 complex, subunit 5) #1: GFP, % of control = 49.7; viability (ATP), % of control = 46.2
Arpc5 (actin related protein 2/3 complex, subunit 5) #2: GFP, % of control = 73.2; viability (ATP), % of control = 61.8
Arpc5 (actin related protein 2/3 complex, subunit 5) #3: GFP, % of control = 48.8; viability (ATP), % of control = 58.9
Irgq (immunity-related GTPase family, Q) #1: GFP, % of control = 85.9; viability (ATP), % of control = 49.5
Irgq (immunity-related GTPase family, Q) #2: GFP, % of control = 42.4; viability (ATP), % of control = 56.1
Irgq (immunity-related GTPase family, Q) #3: GFP, % of control = 96.1; viability (ATP), % of control = 83.5
Otop3 (otopetrin 3) #1: GFP, % of control = 40.1; viability (ATP), % of control = 96.5
Otop3 (otopetrin 3) #2: GFP, % of control = 78; viability (ATP), % of control = 22.8
Otop3 (otopetrin 3) #3: GFP, % of control = 89.7; viability (ATP), % of control = 71.4
